Assay results taken from article PMC8248824 (Acta Crystallographica. Section F, Structural Biology …, 2021).
Results are given in words; binding and its absence hold for the method and conditions named. Tags and fused reporters may be left off the sequences shown.

Biological target: DARPin D5 from the pQiq_FLAG expression vector (N-terminal His6 tag, C-terminal FLAG tag)
Experiment: SEC; analytical size-exclusion chromatography, AKTAmicro, Superdex 200 Increase 5/150 GL, of the purified DARPins alone; both purified

binding: no binding
B1: DARPin D5 from the pQiq_FLAG expression vector (N-terminal His6 tag, C-terminal FLAG tag) (designed binder)
chain: DLGKKLLEAARAGQDDEVRILMANGADVNAFDHNGSTPLHLAAAIGHLEIVEVLLKYGADVNAEDNWGNTPLHQAAWVGHLEIVEVLLKNGADVNAQDKFGKTAFDISIDNGNEDLAEILQKLN
notes: DARPin D5 itself, as printed within the crystallisation construct (from Asp13); source: E. coli XL1 Blue, purified (HisPur Cobalt Spin Plates)
